Data as given in PubChem BioAssay AID1053208 (Peter MacCallum Cancer Centre, 2014).
Screen: 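Genes whose silencing cuts survival of bone tumour cells only with doxorubicin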 (primary screen). Cell system: mouse osteosarcoma cells, early-passage culture from an engineered mouse model of fibroblastic bone tumour. Reagent: siRNA pool against mouse genes, 40 nM. Timing: about 120 h (48 h before drug, then 72 h with drug). Treatment: doxorubicin 100 nM for 72 h, roughly 30-40% inhibitory dose. Read-out: 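Luminescent ATP signal taken as viability with or without 100 nM doxorubicin for 72 h; mean of two wells set against non-targeting siRNA and turned into robust z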. Reading the numbers: viability z-score with doxorubicin: higher = more viable cells under doxorubicin; viability z-score without drug: higher = more viable cells with knock-down alone. Active means: 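a pool counts as active when its viability z-score with doxorubicin is -2 or below and its z-score without drug lies between -2 and 2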.
The whole screen tested about 17,000 reagents; shown is an unselected part. 788 of all reagents (4.7%) count as active. 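Calls rest on z-score classes alone; an extra cut-off of viability at most 70% of control was not applied to them.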 A number with no mark means an inactive call. Further read-outs or replicates are left out here.

gene knocked down | combined z-score class | viability z-score with doxorubicin | viability z-score without drug
Cyb5rl (cytochrome b5 reductase-like) | no change with or without drug | 0.67 | 1.18
Baz2a (bromodomain adjacent to zinc finger domain, 2A) | no change with or without drug | 0 | -1.18
Mug2 (murinoglobulin 2) | no change with or without drug | -1.35 | -1.18
Extl1 (exostosin-like glycosyltransferase 1) | no change with or without drug | 0.45 | 0.51
Tas2r125 (taste receptor, type 2, member 125) | no change with or without drug | 0.9 | 1.18
Tpd52l2 (tumor protein D52-like 2) | no change with or without drug | -0.9 | 0.51
Defb10 (defensin beta 10) | high cell count without drug only | 0.67 | 2.7
Rnf2 (ring finger protein 2) | low cell count with and without drug | -2.7 | -2.19
Pcdhga5 (protocadherin gamma subfamily A, 5) | no change with or without drug | -1.8 | 1.01
Stoml2 (stomatin (Epb7.2)-like 2) | no change with or without drug | -0.67 | -1.18
Kdm8 (lysine (K)-specific demethylase 8) | no change with or without drug | -0.67 | -1.52
Gtf3c1 (general transcription factor III C 1) | no change with or without drug | 0.9 | 0.67
Sh2d4b (SH2 domain containing 4B) | no change with or without drug | -1.24 | -0.17
Vangl1 (VANGL planar cell polarity 1) | no change with or without drug | -0.9 | 0.51
Vcl (vinculin) | no change with or without drug | 0.9 | 1.52
Timp4 (tissue inhibitor of metalloproteinase 4) | no change with or without drug | 0.45 | 0.84
V1rg10 (vomeronasal 1 receptor, G10) | no change with or without drug | 1.24 | 1.18
Dnajc22 (DnaJ heat shock protein family (Hsp40) member C22) | no change with or without drug | -0.67 | -0.17
Fam131a (family with sequence similarity 131, member A) | no change with or without drug | 1.69 | 0.34
Wiz (widely-interspaced zinc finger motifs) | no change with or without drug | -1.35 | 0.51
Lkaaear1 (LKAAEAR motif containing 1 (IKAAEAR murine motif)) | no change with or without drug | -0.9 | 1.18
Zfp292 (zinc finger protein 292) | no change with or without drug | 0.9 | 0.67
Atf6b (activating transcription factor 6 beta) | no change with or without drug | 0.22 | -0.51
Tmcc1 (transmembrane and coiled coil domains 1) | no change with or without drug | 0 | 1.18
Commd9 (COMM domain containing 9) | no change with or without drug | 0.9 | 0.17
Cep78 (centrosomal protein 78) | no change with or without drug | 0.34 | 1.35
Ank3 (ankyrin 3, epithelial) | no change with or without drug | -0.79 | 1.01
Ier2 (immediate early response 2) | low cell count with doxorubicin only (active) | -2.14 | -1.18
Or5af2 (olfactory receptor family 5 subfamily AF member 2) | no change with or without drug | 0.22 | -0.34
Fam167b (family with sequence similarity 167, member B) | no change with or without drug | 0.9 | -0.67
Mtln (mitoregulin) | no change with or without drug | 0 | -0.34
Tnfrsf19 (tumor necrosis factor receptor superfamily, member 19) | no change with or without drug | 0.22 | 1.52
Mettl27 (methyltransferase like 27) | no change with or without drug | -0.22 | 0.51
Tex56 (testis expressed 56) | high cell count without drug only | 0.67 | 2.19
Yars1 (tyrosyl-tRNA synthetase 1) | no change with or without drug | -0.9 | -0.17
Slamf7 (SLAM family member 7) | no change with or without drug | 0.9 | 0.84
Or14j10 (olfactory receptor family 14 subfamily J member 10) | no change with or without drug | -0.79 | -0.84
Asap1 (ArfGAP with SH3 domain, ankyrin repeat and PH domain1) | no change with or without drug | 0.9 | 1.69
Ttc39c (tetratricopeptide repeat domain 39C) | no change with or without drug | 0.67 | -0.17
Nrbp1 (nuclear receptor binding protein 1) | low cell count without drug only | -1.12 | -2.36
4930519G04Rik (RIKEN cDNA 4930519G04 gene) | no change with or without drug | -1.12 | 0.51
Blmh (bleomycin hydrolase) | no change with or without drug | 0.22 | 0.17
Yju2 (YJU2 splicing factor) | no change with or without drug | -0.11 | -0.17
Rab3gap2 (RAB3 GTPase activating protein subunit 2) | no change with or without drug | 0.79 | -0.84
Or13c7b (olfactory receptor family 13 subfamily C member 7B) | no change with or without drug | -0.45 | -0.34
Vps28 (vacuolar protein sorting 28) | low cell count with doxorubicin only (active) | -5.28 | -0.34
Cep131 (centrosomal protein 131) | no change with or without drug | -0.9 | -0.17
Rin1 (Ras and Rab interactor 1) | no change with or without drug | 0 | 1.85
Anks1 (ankyrin repeat and SAM domain containing 1) | no change with or without drug | 0.9 | 0.17
Stk11 (serine/threonine kinase 11) | no change with or without drug | 0 | -0.17
